# PubChem BioAssay AID328 (DTP/NCI, 2004)
# The list shows only some results of the screen, not a fair sample: it covers a few groups of compounds. Not every dose and run of a compound is shown. T/C is the treated group as % of the vehicle group. Some doses have a count of surviving animals in place of a T/C: the source holds a T/C of zero for them, seemingly a mark for toxic or unscored doses. Some survivor counts are full or nearly so, which does not show that the dose was tolerated: the source hardly ever lists a survival T/C far under the control, and the zero likely stands for such cases as well. Counts of survivors are from the toxicity check (mostly the fifth day) where no day follows; animals may have died later. Schedules are NCI's codes, taken here to give the interval after Q, in days (D) or hours (H), and the number of doses after X. Where survival is the endpoint, this PubChem deposit counts one and a half times the control or more as active, and values a quarter to a half above the control carry no call in these data; other NCI protocols may use other cut-offs. Some T/C values are followed by the survivors on the day toxicity was checked, most often the fifth; without a count or a note in brackets, all were alive then. Some doses were run more than once; the values are given in rising order. Some entries show no survivor count and are marked so; the dose need not have been tolerated.
# Tested on: BDF1 mice, P388 leukemia ip, median survival T/C
# Test: NCI In Vivo Anticancer Drug Screen. Data for tumor model P388 Leukemia (intraperitoneal) in B6D2F1 (BDF1) mice
# Conditions: T/C endpoint: median survival time, higher T/C = longer survival
# In short: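 Steps: implant the tumour, treat one group with compound and another with vehicle, record survival, then divide treated by control.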
# [1] = dose: 50.0 mg/kg/injection, schedule: Q01DX009 (ip), vehicle: Klucel (hydroxypropylcellulose) (HPC)
# [2] = dose: 100.0 mg/kg/injection, schedule: Q01DX009 (ip), vehicle: Klucel (hydroxypropylcellulose) (HPC)
# [3] = dose: 200.0 mg/kg/injection, schedule: Q01DX009 (ip), vehicle: Klucel (hydroxypropylcellulose) (HPC)
# [4] = dose: 1.0 mg/kg/injection, schedule: Q01DX009 (ip), vehicle: saline
# [5] = dose: 1.5 mg/kg/injection, schedule: Q01DX009 (ip), vehicle: saline
# [6] = dose: 2.25 mg/kg/injection, schedule: Q01DX009 (ip), vehicle: saline
smiles,measurement,setting,value
O=NN1CCN/C1=N\[N+](=O)[O-],T/C,[1],112 % of control
same,T/C,"dose: 98.0 mg/kg/injection, schedule: Q01DX009 (ip), vehicle: Klucel (hydroxypropylcellulose) (HPC)",145 % of control
same,T/C,[2],120 % of control
same,T/C,"dose: 132.0 mg/kg/injection, schedule: Q01DX009 (ip), vehicle: Klucel (hydroxypropylcellulose) (HPC)",190 % of control
same,T/C,"dose: 147.0 mg/kg/injection, schedule: Q01DX009 (ip), vehicle: Klucel (hydroxypropylcellulose) (HPC)",122 % of control
same,T/C,[3],133 and 175 % of control [5 of 6 alive]
same,survivor count,"dose: 220.0 mg/kg/injection, schedule: Q01DX009 (ip), vehicle: Klucel (hydroxypropylcellulose) (HPC)",3 of 6
same,survivor count,"dose: 300.0 mg/kg/injection, schedule: Q01DX009 (ip), vehicle: Klucel (hydroxypropylcellulose) (HPC)",1 of 6
CCCP(=O)(N(C)C)N(C)C,T/C,"dose: 50.0 mg/kg/injection, schedule: Q01DX009 (ip), vehicle: saline with Tween-80",93 % of control [survivor count not shown]
same,T/C,"dose: 100.0 mg/kg/injection, schedule: Q01DX009 (ip), vehicle: saline with Tween-80",96 % of control [survivor count not shown]
same,T/C,"dose: 200.0 mg/kg/injection, schedule: Q01DX009 (ip), vehicle: saline with Tween-80",104 % of control [survivor count not shown]
Nc1ccc(N(CCCl)CCCl)cc1,T/C,"dose: 0.05 mg/kg/injection, schedule: Q01DX009 (ip), vehicle: saline",91 % of control [4 of 6 alive]
same,T/C,"dose: 0.07 mg/kg/injection, schedule: Q01DX009 (ip), vehicle: saline",102 % of control
same,T/C,"dose: 0.11 mg/kg/injection, schedule: Q01DX009 (ip), vehicle: saline",117 % of control
same,T/C,"dose: 0.16 mg/kg/injection, schedule: Q01DX009 (ip), vehicle: saline",97 % of control
same,T/C,"dose: 0.32 mg/kg/injection, schedule: Q01DX009 (ip), vehicle: saline",135 % of control
ICCN(CCI)c1ccccc1-c1ccccc1,T/C,[1],178 % of control
same,T/C,[2],171 % of control
same,T/C,[3],180 % of control [5 of 6 alive]
NC(Cc1ccc(N(CCCl)CCCl)c(Cl)c1)C(=O)O (configuration not stated),T/C,"dose: 0.18 mg/kg/injection, schedule: Q04DX003 (ip), vehicle: saline",170 % of control
same,T/C,"dose: 0.26 mg/kg/injection, schedule: Q04DX003 (ip), vehicle: saline",155 % of control
same,T/C,"dose: 0.4 mg/kg/injection, schedule: Q04DX003 (ip), vehicle: saline",130 and 160 % of control
same,T/C,"dose: 0.6 mg/kg/injection, schedule: Q04DX003 (ip), vehicle: saline",161 % of control
same,T/C,"dose: 0.9 mg/kg/injection, schedule: Q04DX003 (ip), vehicle: saline",176 and 200 % of control
same,T/C,"dose: 1.4 mg/kg/injection, schedule: Q04DX003 (ip), vehicle: saline",230 % of control
same,T/C,"dose: 2.2 mg/kg/injection, schedule: Q04DX003 (ip), vehicle: saline",230 % of control
same,T/C,"dose: 3.3 mg/kg/injection, schedule: Q04DX003 (ip), vehicle: saline",230 and 272 % of control
same,T/C,"dose: 5.0 mg/kg/injection, schedule: Q04DX003 (ip), vehicle: saline",272 % of control
same,T/C,"dose: 7.5 mg/kg/injection, schedule: Q04DX003 (ip), vehicle: saline",272 % of control [5 of 6 alive]
OCCF,T/C,"dose: 0.75 mg/kg/injection, schedule: Q01DX009 (ip), vehicle: saline",115 % of control
same,T/C,[4],105 % of control
same,survivor count,[4],1 of 6
same,T/C,[5],110 and 150 % of control
same,survivor count,[5],1 of 6
same,T/C,"dose: 1.5 mg/kg/injection, schedule: Q04DX003 (ip), vehicle: saline",118 % of control
same,T/C,[6],115 % of control
same,survivor count,[6],0 of 6
same,survivor count,"dose: 3.0 mg/kg/injection, schedule: Q01DX009 (ip), vehicle: saline",0 of 6
same,T/C,"dose: 3.0 mg/kg/injection, schedule: Q04DX003 (ip), vehicle: saline",118 % of control
same,survivor count,"dose: 6.0 mg/kg/injection, schedule: Q04DX003 (ip), vehicle: saline",3 of 6
CC(C)SC(OC(=O)COc1ccc(Cl)cc1Cl)C(Cl)(Cl)Cl (configuration not stated),T/C,"dose: 100.0 mg/kg/injection, schedule: Q04DX003 (ip), vehicle: other",109 % of control
same,T/C,"dose: 200.0 mg/kg/injection, schedule: Q04DX003 (ip), vehicle: other",109 % of control
same,T/C,"dose: 400.0 mg/kg/injection, schedule: Q04DX003 (ip), vehicle: other",109 % of control [5 of 6 alive]
Nc1ccc(CCCCc2cccc(S(=O)(=O)F)c2)c(Cl)c1.O=[N+]([O-])c1cc([N+](=O)[O-])c(O)c([N+](=O)[O-])c1,T/C,"dose: 25.0 mg/kg/injection, schedule: Q04DX003 (ip), vehicle: Klucel (hydroxypropylcellulose) (HPC)",95 % of control
same,T/C,"dose: 50.0 mg/kg/injection, schedule: Q04DX003 (ip), vehicle: Klucel (hydroxypropylcellulose) (HPC)",90 % of control
same,T/C,"dose: 56.0 mg/kg/injection, schedule: Q01DX009 (ip), vehicle: saline",95 % of control
same,T/C,"dose: 100.0 mg/kg/injection, schedule: Q04DX003 (ip), vehicle: Klucel (hydroxypropylcellulose) (HPC)",95 % of control
same,T/C,"dose: 112.0 mg/kg/injection, schedule: Q01DX009 (ip), vehicle: saline",115 % of control
same,T/C,"dose: 150.0 mg/kg/injection, schedule: Q01DX009 (ip), vehicle: Klucel (hydroxypropylcellulose) (HPC)",109 % of control
same,T/C,"dose: 150.0 mg/kg/injection, schedule: Q01DX009 (ip), vehicle: saline",95 % of control
same,T/C,"dose: 150.0 mg/kg/injection, schedule: Q04DX003 (ip), vehicle: Klucel (hydroxypropylcellulose) (HPC)",115 % of control
same,survivor count,"dose: 225.0 mg/kg/injection, schedule: Q01DX009 (ip), vehicle: Klucel (hydroxypropylcellulose) (HPC)",6 of 6
same,T/C,"dose: 225.0 mg/kg/injection, schedule: Q01DX009 (ip), vehicle: saline",109 and 130 % of control
same,T/C,"dose: 225.0 mg/kg/injection, schedule: Q04DX003 (ip), vehicle: Klucel (hydroxypropylcellulose) (HPC)",120 % of control
same,survivor count,"dose: 335.0 mg/kg/injection, schedule: Q01DX009 (ip), vehicle: Klucel (hydroxypropylcellulose) (HPC)",6 of 6
same,survivor count,"dose: 335.0 mg/kg/injection, schedule: Q01DX009 (ip), vehicle: saline",3 of 6
same,survivor count,"dose: 335.0 mg/kg/injection, schedule: Q04DX003 (ip), vehicle: Klucel (hydroxypropylcellulose) (HPC)",6 of 6
N#CSc1ccc([N+](=O)[O-])cc1[N+](=O)[O-],T/C,"dose: 25.0 mg/kg/injection, schedule: Q04DX003 (ip), vehicle: saline",123 % of control
same,T/C,"dose: 50.0 mg/kg/injection, schedule: Q04DX003 (ip), vehicle: saline",126 % of control
same,survivor count,"dose: 100.0 mg/kg/injection, schedule: Q04DX003 (ip), vehicle: saline",6 of 6
COc1cc([N+](=O)[O-])c2nc(C(O)C[N+](=O)[O-])ccc2c1[N+](=O)[O-] (configuration not stated),T/C,"dose: 12.5 mg/kg/injection, schedule: Q01DX009 (ip), vehicle: other",125 % of control
same,T/C,"dose: 25.0 mg/kg/injection, schedule: Q01DX009 (ip), vehicle: other",118 % of control
same,T/C,"dose: 50.0 mg/kg/injection, schedule: Q01DX009 (ip), vehicle: other",100 % of control
same,T/C,"dose: 100.0 mg/kg/injection, schedule: Q01DX009 (ip), vehicle: other",98 % of control
same,T/C,"dose: 200.0 mg/kg/injection, schedule: Q01DX009 (ip), vehicle: other",100 % of control
NC(Cc1ccc(N(CCF)CCCl)cc1)C(=O)O (configuration not stated),T/C,"dose: 3.12 mg/kg/injection, schedule: Q01DX009 (ip), vehicle: Klucel (hydroxypropylcellulose) (HPC)",138 % of control
same,T/C,"dose: 6.25 mg/kg/injection, schedule: Q01DX009 (ip), vehicle: Klucel (hydroxypropylcellulose) (HPC)",169 % of control
same,T/C,"dose: 12.5 mg/kg/injection, schedule: Q01DX009 (ip), vehicle: Klucel (hydroxypropylcellulose) (HPC)",203 and 230 % of control
same,T/C,"dose: 25.0 mg/kg/injection, schedule: Q01DX009 (ip), vehicle: Klucel (hydroxypropylcellulose) (HPC)",230 % of control
same,survivor count,[2],4 of 6
same,survivor count,[3],0 of 6
same,survivor count,"dose: 400.0 mg/kg/injection, schedule: Q01DX009 (ip), vehicle: Klucel (hydroxypropylcellulose) (HPC)",0 of 6
